This passage reports binding results from US20230002497A1 (INSERM INSTITUT NATIONAL DE LA SANTE ET DE LA RECHERCHE …, published 2023).

No constants are given. Whether binding was seen depends on the method and setting. Some results given as binding are weak or reduced against the parent protein; the word gives no strength.

Test [1] deals with T1, recombinant mouse IL-20Rb (mouse) (UniProt E9Q9A6).
T1 sequence: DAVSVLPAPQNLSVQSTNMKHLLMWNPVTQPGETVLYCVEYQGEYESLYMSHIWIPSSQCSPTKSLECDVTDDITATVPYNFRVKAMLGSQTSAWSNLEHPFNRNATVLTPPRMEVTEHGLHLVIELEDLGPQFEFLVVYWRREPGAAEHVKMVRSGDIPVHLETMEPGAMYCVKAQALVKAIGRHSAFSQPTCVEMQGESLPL
The test can be described thus: ELISA on coated recombinant IL-20Rb (FIG. 8).

In test [2] the target is T1, recombinant mouse IL-20Rb (mouse). The test can be described thus: conclusion of the example (ELISA, FIG. 8).

B1: B7 antibody (native B7 clone), human anti-IL-20Rb antibody (antibody, mouse IgG2a, V domains shown)
VH: EVQLVESGGSLVKPGGSLRLSCAASGFTFSNYSMNWVRQAPGKGLEWISYISGSSRYISYADFVKGRFTISRDNATNSLYLQMNSLRAEDTAVYYCVRSYYGMDVWGRGTLVTVSS
VL: QSVLTQPASVSGSPGQSITISCAGTSSDVGGNYYVSWYQQHPGKAPKLMIYGDSYRPSGVSNRFSGSKSGNTASLTISGLQAEDEADYYCSSYTYYSTRVFGGGTKLAVLG
B1: the binding entry in test [1] and in test [2] was “binds” in each case.
